Data: PMC6465247
Results are given in words; binding and its absence hold for the method and conditions named. Sequences can lack the tags named with a protein.

Sequences of proteins named here, by UniProt entry; tags and fusion partners are left off.
UniProt Q6Q1P4: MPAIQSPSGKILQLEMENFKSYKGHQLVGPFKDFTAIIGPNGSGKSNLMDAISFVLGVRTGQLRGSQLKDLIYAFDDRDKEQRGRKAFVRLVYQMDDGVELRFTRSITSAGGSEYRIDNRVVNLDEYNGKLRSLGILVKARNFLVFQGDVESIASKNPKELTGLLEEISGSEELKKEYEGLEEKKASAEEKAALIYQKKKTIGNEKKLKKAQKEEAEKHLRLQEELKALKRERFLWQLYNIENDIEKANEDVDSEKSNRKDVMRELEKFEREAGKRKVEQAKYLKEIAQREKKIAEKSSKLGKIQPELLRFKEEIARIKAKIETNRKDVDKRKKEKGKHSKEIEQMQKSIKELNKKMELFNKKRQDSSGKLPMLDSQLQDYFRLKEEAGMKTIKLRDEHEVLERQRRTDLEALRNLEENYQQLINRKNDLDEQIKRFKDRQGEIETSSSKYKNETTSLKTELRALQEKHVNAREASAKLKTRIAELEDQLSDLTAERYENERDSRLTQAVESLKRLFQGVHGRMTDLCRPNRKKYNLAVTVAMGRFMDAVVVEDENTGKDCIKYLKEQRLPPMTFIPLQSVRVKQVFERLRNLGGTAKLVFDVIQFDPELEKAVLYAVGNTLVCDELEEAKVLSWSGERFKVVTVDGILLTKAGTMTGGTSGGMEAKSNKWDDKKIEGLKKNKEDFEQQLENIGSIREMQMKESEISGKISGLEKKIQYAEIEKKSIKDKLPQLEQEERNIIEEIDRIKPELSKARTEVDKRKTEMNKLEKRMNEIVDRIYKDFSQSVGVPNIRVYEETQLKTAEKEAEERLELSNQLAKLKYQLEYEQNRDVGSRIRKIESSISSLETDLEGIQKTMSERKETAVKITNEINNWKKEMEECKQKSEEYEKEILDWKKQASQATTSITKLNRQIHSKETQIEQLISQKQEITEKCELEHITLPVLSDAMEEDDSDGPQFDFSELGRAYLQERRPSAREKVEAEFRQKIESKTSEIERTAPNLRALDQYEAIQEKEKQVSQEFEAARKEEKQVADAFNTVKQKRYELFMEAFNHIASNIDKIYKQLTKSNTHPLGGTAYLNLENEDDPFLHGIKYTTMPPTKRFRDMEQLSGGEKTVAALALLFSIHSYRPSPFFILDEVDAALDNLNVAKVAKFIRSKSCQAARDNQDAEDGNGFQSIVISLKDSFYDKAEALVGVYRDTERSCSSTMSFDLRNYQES

Experiments:
Assay in all cases: two-hybrid; Matchmaker Gold system (Clontech), pGADT7-GW and pGBKT7-GW fusions co-transformed into yeast AH109; growth on SD/-Leu -Trp -His
[1] = molecular target: SMC1, yeast two-hybrid fusion (Arabidopsis thaliana) (UniProt Q6Q1P4)
[2] = molecular target: T1, WINGS APART-LIKE 1 (WAPL1), yeast two-hybrid fusion (Arabidopsis thaliana) (UniProt F4I7C7)
T1 sequence: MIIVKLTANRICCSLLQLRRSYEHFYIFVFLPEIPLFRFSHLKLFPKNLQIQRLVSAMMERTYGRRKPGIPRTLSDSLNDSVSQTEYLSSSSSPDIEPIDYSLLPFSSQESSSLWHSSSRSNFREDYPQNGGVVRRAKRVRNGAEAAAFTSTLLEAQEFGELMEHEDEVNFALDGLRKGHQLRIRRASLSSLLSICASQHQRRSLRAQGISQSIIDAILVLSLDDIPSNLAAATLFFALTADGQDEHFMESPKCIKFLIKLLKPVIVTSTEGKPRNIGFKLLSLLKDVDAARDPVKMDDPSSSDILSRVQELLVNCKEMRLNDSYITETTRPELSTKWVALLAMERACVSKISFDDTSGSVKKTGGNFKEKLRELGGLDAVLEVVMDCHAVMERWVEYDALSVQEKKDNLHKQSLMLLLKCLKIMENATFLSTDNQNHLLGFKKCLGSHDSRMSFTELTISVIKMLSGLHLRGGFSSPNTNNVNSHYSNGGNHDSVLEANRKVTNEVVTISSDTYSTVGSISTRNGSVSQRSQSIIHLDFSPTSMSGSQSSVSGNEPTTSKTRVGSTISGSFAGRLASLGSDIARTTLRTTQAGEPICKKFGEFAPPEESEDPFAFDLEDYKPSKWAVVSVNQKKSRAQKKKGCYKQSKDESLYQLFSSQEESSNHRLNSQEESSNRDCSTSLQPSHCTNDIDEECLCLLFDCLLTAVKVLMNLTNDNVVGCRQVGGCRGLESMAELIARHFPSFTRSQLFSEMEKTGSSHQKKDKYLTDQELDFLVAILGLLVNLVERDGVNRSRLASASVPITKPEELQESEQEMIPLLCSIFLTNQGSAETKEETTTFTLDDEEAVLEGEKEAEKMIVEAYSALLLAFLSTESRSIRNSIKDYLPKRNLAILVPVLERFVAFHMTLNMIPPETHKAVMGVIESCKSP

[3] = molecular target: T2, SCC3, yeast two-hybrid fusion (Arabidopsis thaliana) (UniProt O82265)
T2 sequence: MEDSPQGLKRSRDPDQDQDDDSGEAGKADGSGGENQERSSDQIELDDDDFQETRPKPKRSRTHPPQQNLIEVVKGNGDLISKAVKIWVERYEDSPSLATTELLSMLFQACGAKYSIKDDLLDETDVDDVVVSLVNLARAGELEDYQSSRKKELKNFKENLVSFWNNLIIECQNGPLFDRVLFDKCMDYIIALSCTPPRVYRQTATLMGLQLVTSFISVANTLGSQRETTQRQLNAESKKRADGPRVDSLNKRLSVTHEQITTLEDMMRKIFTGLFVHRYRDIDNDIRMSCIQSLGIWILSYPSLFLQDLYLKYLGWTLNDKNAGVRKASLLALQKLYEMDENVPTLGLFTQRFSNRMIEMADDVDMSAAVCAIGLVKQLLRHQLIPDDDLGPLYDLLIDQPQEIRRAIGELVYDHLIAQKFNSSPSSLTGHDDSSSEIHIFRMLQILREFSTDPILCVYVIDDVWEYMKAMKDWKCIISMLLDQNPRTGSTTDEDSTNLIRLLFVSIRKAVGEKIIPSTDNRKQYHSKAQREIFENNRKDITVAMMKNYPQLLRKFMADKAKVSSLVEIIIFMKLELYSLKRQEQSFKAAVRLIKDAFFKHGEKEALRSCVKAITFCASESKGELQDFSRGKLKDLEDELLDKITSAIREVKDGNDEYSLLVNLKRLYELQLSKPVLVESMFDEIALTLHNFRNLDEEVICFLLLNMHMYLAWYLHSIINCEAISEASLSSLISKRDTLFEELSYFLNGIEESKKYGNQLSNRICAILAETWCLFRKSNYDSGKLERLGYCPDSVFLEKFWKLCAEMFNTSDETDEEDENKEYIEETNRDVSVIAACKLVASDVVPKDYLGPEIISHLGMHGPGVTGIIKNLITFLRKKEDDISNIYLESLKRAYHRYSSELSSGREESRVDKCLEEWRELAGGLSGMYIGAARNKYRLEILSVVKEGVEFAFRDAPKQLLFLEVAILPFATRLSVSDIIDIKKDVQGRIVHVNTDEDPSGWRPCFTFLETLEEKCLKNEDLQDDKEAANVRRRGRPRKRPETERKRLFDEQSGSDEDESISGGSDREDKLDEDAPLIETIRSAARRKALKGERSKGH

Measured: binding

B1: SWITCH 1/DYAD (SWI1), yeast two-hybrid fusion (protein, UniProt Q9FGN8 1-639)
chain: MSSTMFVKRNPIRETTAGKISSPSSPTLNVAVAHIRAGSYYEIDASILPQRSPENLKSIRVVMVSKITASDVSLRYPSMFSLRSHFDYSRMNRNKPMKKRSGGGLLPVFDESHVMASELAGDLLYRRIAPHELSMNRNSWGFWVSSSSRRNKFPRREVVSQPAYNTRLCRAASPEGKCSSELKSGGMIKWGRRLRVQYQSRHIDTRKNKEGEESSRVKDEVYKEEEMEKEEDDDDGNEIGGTKQEAKEITNGNRKRKLIESSTERLAQKAKVYDQKKETQIVVYKRKSERKFIDRWSVERYKLAERNMLKVMKEKNAVFGNSILRPELRSEARKLIGDTGLLDHLLKHMAGKVAPGGQDRFMRKHNADGAMEYWLESSDLIHIRKEAGVKDPYWTPPPGWKLGDNPSQDPVCAGEIRDIREELASLKRELKKLASKKEEEELVIMTTPNSCVTSQNDNLMTPAKEIYADLLKKKYKIEDQLVIIGETLRKMEEDMGWLKKTVDENYPKKPDSTETPLLLEDSPPIQTLEGEVKVVNKGNQITESPQNREKGRKHDQQERSPLSLISNTGFRICRPVGMFAWPQLPALAAATDTNASSPSHRQAYPSPFPVKPLAAKRPLGLTFPFTIIPEEAPKNLFNV
no binding: all assays above
